Our source for the T/C and survivor count values is PubChem BioAssay AID294 (DTP/NCI, 2004).

The subject of the assay is MX-1 breast xenograft, nude mice, tumor weight change. As to the kind of experiment: NCI In Vivo Anticancer Drug Screen. Data for tumor model Human Mammary Carcinoma MX-1 Xenograft (subcutaneous) in NU/NU Swiss (nude) mice. The note with it: T/C endpoint: optimum tumor weight change, schedule: Q04DX003 (ip), higher T/C = larger tumour. How it is done: The antitumor activity of compounds was measured in mice bearing transplantable tumors. Survival or tumor size were measured and the results are expressed as the measurement made in the treated group (T) divided by the measurement made in the vehicle treated control group (C). The tumor model used in this assay is Human Mammary Carcinoma MX-1 Xenograft (subcutaneous) in NU/NU Swiss (nude) mice

Molecules are shown by their SMILES. The list shows only some results of the screen, not a fair sample: its compounds were picked by chemical class. Other doses and runs of a compound may be missing. T/C gives the treated animals as a percentage of the vehicle group. Schedule codes are those of the source, taken here to give the interval after Q, in days (D) or hours (H), and the number of doses after X. Some T/C values carry the count of animals alive at the toxicity check; where neither a count nor a note follows, no animal had died by that day. Some doses have a count of surviving animals in place of a T/C: the source files T/C as zero there, which appears to mark a toxic dose or a test without result, not a measured value. Survivors were counted at the toxicity check; its day is shown where the source gives one, and later deaths do not show.

On to `C[As](C)SC1OC(CO)C(O)C(O)C1O` (stereo unspecified), for which the T/C by setting is: (dose: 3.0 mg/kg/injection, vehicle: saline, evaluated on day 37) 79 % of control [4 of 5 alive on day 37]; (dose: 6.0 mg/kg/injection, vehicle: saline, evaluated on day 37) 59 % of control. In addition, the survivor count (dose: 12.0 mg/kg/injection, vehicle: saline) was 3 of 5 on day 37.

Consider `CC1(C)CN1P(=O)(Nc1ncccn1)N1CC1(C)C` (stereo unspecified), for which the T/C was 72 % of control (dose: 12.5 mg/kg/injection, vehicle: suspension in saline, evaluated on day 40); 78 % of control (dose: 25.0 mg/kg/injection, vehicle: suspension in saline, evaluated on day 40); 73 % of control (dose: 50.0 mg/kg/injection, vehicle: suspension in saline, evaluated on day 40); 69 % of control [4 of 5 alive on day 42] (dose: 100.0 mg/kg/injection, vehicle: suspension in saline, evaluated on day 40). In addition, the survivor count is 2 of 5 on day 41 (dose: 200.0 mg/kg/injection, vehicle: suspension in saline); 1 of 5 on day 41 (dose: 400.0 mg/kg/injection, vehicle: suspension in saline); 0 of 5 on day 41 (dose: 800.0 mg/kg/injection, vehicle: suspension in saline); 0 of 5 on day 41 (dose: 1600.0 mg/kg/injection, vehicle: suspension in saline).
